In publication PMC8206134, “Structural basis of mechano-chemical coupling by the mitotic kinesin KIF14” (Nature Communications, 2021):
These are yes or no findings as the source states them, for the method shown.

Molecular target: KIF14 construct K735 (residues Asn-391 to Leu-735) (mouse) (UniProt L0N7N1)
Assay: SEC; size-exclusion chromatography of the KIF14 constructs alone in solution, elution compared with protein standards (66, 44 and 25 kDa); both purified

binding: no binding
B1: KIF14 construct K735 (residues Asn-391 to Leu-735) (domain or fragment, UniProt L0N7N1 391-735)
chain: NSQVTVAVRVRPFSKREKTEKASQVVFTNGEEITVEHPDMKQVYSFIYDVSFWSFDECHPGYASQTTVYETLAAPLLDRAFEGYNTCLFAYGQTGSGKSYTMMGLNEEPGIIPRFCEDLFAQIAKKQTSEVSYHLEMSFFEVYNEKIHDLLVCKGENGQRKQPLRAREHPVSGPYVEGLSMNVVSSYSDIQSWLELGNKQRATAATGMNDKSSRSHSVFTLVMTQTKTEVVEGEEHDHRITSRINLVDLAGSERCSTAHSSGQRLKEGVSINKSLLTLGKVISALSEQANGKRVFIPYRESTLTWLLKESLGGNSKTAMIATVSPAASNIEETLSTLRYATQARL
